# The list does not hold the whole screen: it gathers tests that were run many times, whatever their T/C, doses with no T/C, and many T/C values between a quarter and a half above the control. Further doses and runs are listed elsewhere. T/C is the treated group as % of the vehicle group. Some doses have a count of surviving animals in place of a T/C: the source holds a T/C of zero for them, seemingly a mark for toxic or unscored doses. Some survivor counts are full or nearly so, which does not show that the dose was tolerated: survival well below the control is almost never listed, so the zero probably covers shortened survival too. Counts of survivors are from the toxicity check (mostly the fifth day) where no day follows; animals may have died later. Schedule codes are those of the source, read here as Q, the interval in days (D) or hours (H), X, the number of doses. Some doses were run more than once; their values stand side by side, smallest first. For survival time, this PubChem deposit counts one and a half times the control or more as active, and values a quarter to a half above the control carry no call in these data; other NCI protocols may use other cut-offs. Some T/C values carry the count of animals alive at the toxicity check (mostly the fifth day); where none is given, no animal had died by that day.
# Test system: BDF1 mice, P388 leukemia ip, median survival T/C
# Assay: NCI In Vivo Anticancer Drug Screen. Data for tumor model P388 Leukemia (intraperitoneal) in B6D2F1 (BDF1) mice
# Settings: T/C endpoint: median survival time, higher T/C = longer survival
# Outline: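 Steps: implant the tumour, treat one group with compound and another with vehicle, record survival, then divide treated by control.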
# [1] = dose: 100.0 mg/kg/injection, schedule: Q01DX009 (ip), vehicle: saline with Tween-80
# [2] = dose: 400.0 mg/kg/injection, schedule: Q01DX009 (ip), vehicle: saline with Tween-80
# [3] = dose: 25.0 mg/kg/injection, schedule: Q04DX003 (ip), vehicle: saline with Tween-80
# [4] = dose: 100.0 mg/kg/injection, schedule: Q04DX003 (ip), vehicle: saline with Tween-80
# [5] = dose: 200.0 mg/kg/injection, schedule: Q04DX003 (ip), vehicle: saline with Tween-80
structure (smiles),measurement,setting,value
CCN1C[C@]2(COC)[C@H](O)C[C@H](OC)[C@]34C1[C@H]([C@H](OC)[C@H]23)[C@]1(OC(C)=O)[C@H]2[C@@H](OC(=O)c3ccccc3)[C@](O)(C[C@H]24)[C@@H](OC)[C@@H]1O,survivor count,"dose: 0.5 mg/kg/injection, schedule: Q01DX009 (ip), vehicle: Klucel (hydroxypropylcellulose) (HPC)",3 of 6
same,survivor count,"dose: 1.0 mg/kg/injection, schedule: Q01DX009 (ip), vehicle: Klucel (hydroxypropylcellulose) (HPC)",0 of 6
CCC[CH2][Sn]1([CH2]CCC)[O]C(=O)C[S]1,T/C,"dose: 3.13 mg/kg/injection, schedule: Q04DX003 (ip), vehicle: saline with Tween-80",127 % of control
same,T/C,"dose: 4.5 mg/kg/injection, schedule: Q04DX003 (ip), vehicle: saline with Tween-80",133 % of control
CCOC(=O)Nc1nc(Cl)c(Cl)nc1Cl,T/C,"dose: 3.12 mg/kg/injection, schedule: Q01DX009 (ip), vehicle: water",135 % of control
same,survivor count,"dose: 6.25 mg/kg/injection, schedule: Q01DX009 (ip), vehicle: water",5 of 6
same,survivor count,"dose: 12.5 mg/kg/injection, schedule: Q01DX009 (ip), vehicle: water",6 of 6
same,survivor count,"dose: 25.0 mg/kg/injection, schedule: Q01DX009 (ip), vehicle: water",5 of 6
same,T/C,"dose: 25.0 mg/kg/injection, schedule: Q04DX003 (ip), vehicle: water",125 % of control
Cc1ccc2[nH]c(=S)n(-c3cccc(C(F)(F)F)c3)c(=O)c2c1,survivor count,[1],6 of 6
CCOC(=O)Nc1nc(NC(=O)OCC)c(Cl)nc1Cl,survivor count,"dose: 50.0 mg/kg/injection, schedule: Q04DX003 (ip), vehicle: water",6 of 6
O=C1NC(=O)C(c2ccccc2)(c2ccc(Cl)cc2Cl)N1 (stereo not drawn),survivor count,[2],3 of 6
CCC(CO)NC(=O)/C=C/c1ccccc1Cl (stereo not drawn),survivor count,[2],3 of 6
O=C1C=CC(=O)N1CO,survivor count,"dose: 5.0 mg/kg/injection, schedule: Q01DX009 (ip), vehicle: saline",5 of 6
same,survivor count,"dose: 12.0 mg/kg/injection, schedule: Q04DX003 (ip), vehicle: saline",0 of 6
same,survivor count,"dose: 19.0 mg/kg/injection, schedule: Q04DX003 (ip), vehicle: saline",0 of 6
same,survivor count,"dose: 28.0 mg/kg/injection, schedule: Q04DX003 (ip), vehicle: saline",0 of 6
COc1ccc(C(=O)C=C(C(F)(F)F)C(F)(F)F)cc1,survivor count,[3],6 of 6
NCCNCC[OH2+].NCCNCC[OH2+].[Cu+2].[O-][Cl+3]([O-])([O-])[O-],survivor count,"dose: 50.0 mg/kg/injection, schedule: Q01DX009 (ip), vehicle: saline",1 of 6 and 4 of 6
same,survivor count,"dose: 100.0 mg/kg/injection, schedule: Q01DX009 (ip), vehicle: saline",0 of 6
same,survivor count,"dose: 200.0 mg/kg/injection, schedule: Q01DX009 (ip), vehicle: saline",0 of 6
C/C(=C\C1C/C(=C/CCc2ccoc2)C(=O)O1)CCCc1ccoc1 (stereo not drawn),T/C,"dose: 10.0 mg/kg/injection, schedule: Q01DX009 (ip), vehicle: other",132 % of control
COc1cc2c(c(OC)c1OC)-c1ccc(OC)c(=O)cc1[C@@H](NC(=O)C(F)(F)F)CC2,T/C,"dose: 0.02 mg/kg/injection, schedule: Q01DX009 (ip), vehicle: Klucel (hydroxypropylcellulose) (HPC)",140 % of control
same,T/C,"dose: 0.04 mg/kg/injection, schedule: Q01DX009 (ip), vehicle: Klucel (hydroxypropylcellulose) (HPC)",136 % of control
same,survivor count,"dose: 0.78 mg/kg/injection, schedule: Q01DX009 (ip), vehicle: Klucel (hydroxypropylcellulose) (HPC)",6 of 6
same,survivor count,"dose: 1.56 mg/kg/injection, schedule: Q01DX009 (ip), vehicle: Klucel (hydroxypropylcellulose) (HPC)",6 of 6
same,survivor count,"dose: 3.12 mg/kg/injection, schedule: Q01DX009 (ip), vehicle: Klucel (hydroxypropylcellulose) (HPC)",4 of 6
same,survivor count,"dose: 6.25 mg/kg/injection, schedule: Q01DX009 (ip), vehicle: Klucel (hydroxypropylcellulose) (HPC)",2 of 6
Oc1c(I)cc(Cl)c2cccnc12,survivor count,"dose: 50.0 mg/kg/injection, schedule: Q01DX003 (ip), vehicle: saline with Tween-80",3 of 6
same,survivor count,"dose: 100.0 mg/kg/injection, schedule: Q01DX003 (ip), vehicle: saline with Tween-80",3 of 6
same,survivor count,"dose: 200.0 mg/kg/injection, schedule: Q01DX003 (ip), vehicle: saline with Tween-80",3 of 6
CC1(C)CC2(C)OC2C2(C1)N=NC(=Nc1ccccc1)O2 (stereo not drawn),T/C,[1],126 % of control
same,T/C,"dose: 200.0 mg/kg/injection, schedule: Q01DX009 (ip), vehicle: saline with Tween-80",142 % of control [5 of 6 alive]
COC(=O)/C(=N\NS(=O)(=O)c1ccc(C)cc1)c1ccccc1,T/C,"dose: 12.5 mg/kg/injection, schedule: Q04DX003 (ip), vehicle: Klucel (hydroxypropylcellulose) (HPC)",125 % of control
COC1=C(Br)[C@H](O)[C@](O)(CC#N)C=C1Br,T/C,"dose: 25.0 mg/kg/injection, schedule: Q01DX009 (ip), vehicle: Klucel (hydroxypropylcellulose) (HPC)",126 % of control
same,T/C,"dose: 50.0 mg/kg/injection, schedule: Q01DX009 (ip), vehicle: Klucel (hydroxypropylcellulose) (HPC)",134 % of control
same,survivor count,"dose: 100.0 mg/kg/injection, schedule: Q01DX009 (ip), vehicle: Klucel (hydroxypropylcellulose) (HPC)",5 of 6
Cc1cc(C)c(CCc2cc(C)c(C)cc2C)cc1C,survivor count,"dose: 100.0 mg/kg/injection, schedule: Q04DX003 (ip), vehicle: Klucel (hydroxypropylcellulose) (HPC)",6 of 6
same,survivor count,"dose: 400.0 mg/kg/injection, schedule: Q04DX003 (ip), vehicle: Klucel (hydroxypropylcellulose) (HPC)",6 of 6
C[n+]1cccc(C2=CCCC2)c1,survivor count,[4],0 of 6
same,survivor count,[5],0 of 6
same,survivor count,"dose: 400.0 mg/kg/injection, schedule: Q04DX003 (ip), vehicle: saline with Tween-80",0 of 6
same,survivor count,"dose: 600.0 mg/kg/injection, schedule: Q04DX003 (ip), vehicle: saline with Tween-80",0 of 6
BrCC1CCCO1 (stereo not drawn),survivor count,[1],0 of 6
COc1cc(OC)c(OC)cc1/C=C\c1ccnc2ccccc12,T/C,"dose: 100.0 mg/kg/injection, schedule: Q01DX009 (ip), vehicle: carboxymethylcellulose (CMC)",131 % of control
same,T/C,"dose: 300.0 mg/kg/injection, schedule: Q01DX010 (ip), vehicle: saline",130 % of control
c1ccc(C2=C(c3ccccc3)c3cccc4cccc2c34)cc1,survivor count,"dose: 200.0 mg/kg/injection, schedule: Q01DX001 (ip), vehicle: Klucel (hydroxypropylcellulose) (HPC)",6 of 6
c1ccc2c(c1)[nH]c1nc3ccncc3nc12,survivor count,[5],5 of 6
COc1cc(C2c3cc4c(cc3C(O)C(CO)C2CO)OCO4)cc(OC)c1OC (stereo not drawn),T/C,"dose: 8.25 mg/kg/injection, schedule: Q01DX009 (ip), vehicle: Klucel (hydroxypropylcellulose) (HPC)",127 % of control
same,T/C,"dose: 17.5 mg/kg/injection, schedule: Q01DX009 (ip), vehicle: Klucel (hydroxypropylcellulose) (HPC)",140 % of control
same,T/C,"dose: 35.0 mg/kg/injection, schedule: Q01DX009 (ip), vehicle: Klucel (hydroxypropylcellulose) (HPC)",145 % of control
same,T/C,[4],140 % of control
same,survivor count,"dose: 140.0 mg/kg/injection, schedule: Q01DX009 (ip), vehicle: Klucel (hydroxypropylcellulose) (HPC)",10 of 10
same,T/C,"dose: 150.0 mg/kg/injection, schedule: Q04DX003 (ip), vehicle: saline sonified",145 % of control
NC(Cc1ccc(N(CCCl)CCCl)cc1)C(=O)O (stereo not drawn),T/C,"dose: 10.0 mg/kg/injection, schedule: Q01DX010 (ip), vehicle: saline",140 % of control
O=C1NC(c2ccccc2)(c2ccccc2)C(=O)N1CCS,survivor count,"dose: 12.5 mg/kg/injection, schedule: Q04DX003 (ip), vehicle: saline",6 of 6
same,survivor count,"dose: 50.0 mg/kg/injection, schedule: Q04DX003 (ip), vehicle: saline",6 of 6
same,survivor count,"dose: 100.0 mg/kg/injection, schedule: Q04DX003 (ip), vehicle: saline",6 of 6
O/N=C/c1ccccc1O.O/N=C/c1ccccc1O.[Cu],T/C,[3],127 % of control
same,survivor count,"dose: 37.5 mg/kg/injection, schedule: Q04DX003 (ip), vehicle: saline with Tween-80",2 of 6
COC(C)C(Br)C(=O)O (stereo not drawn),survivor count,"dose: 400.0 mg/kg/injection, schedule: Q01DX009 (ip), vehicle: saline",6 of 6
O=[N+]([O-])c1cc2no[n+]([O-])c2cc1N1CCOCC1,T/C,"dose: 15.0 mg/kg/injection, schedule: Q01DX009 (ip), vehicle: saline with Tween-80",126 % of control
same,survivor count,"dose: 60.0 mg/kg/injection, schedule: Q01DX009 (ip), vehicle: saline with Tween-80",3 of 7
